Results are given in words; binding and its absence hold for the method and conditions named. Binding seen in cells or lysates may run through a third protein. Here binding means that the protein was enriched with, or labelled near, the bait; the list need not be complete.
Key:
[1] = molecular target: T1, Ambra1 (activating molecule in Beclin1-regulated autophagy) (mouse (endogenous in SCC cells and MEFs)) (UniProt A2AH22); assay: affinity purification with mass spectrometry; Ambra1, pSrc Y416, FAK and IgG control IPs from 2 mg RIPA lysates of SCC FAK-WT and FAK -/- cells in triplicate; on-bead digestion; quantitative label-free LC-MS/MS
T1 sequence: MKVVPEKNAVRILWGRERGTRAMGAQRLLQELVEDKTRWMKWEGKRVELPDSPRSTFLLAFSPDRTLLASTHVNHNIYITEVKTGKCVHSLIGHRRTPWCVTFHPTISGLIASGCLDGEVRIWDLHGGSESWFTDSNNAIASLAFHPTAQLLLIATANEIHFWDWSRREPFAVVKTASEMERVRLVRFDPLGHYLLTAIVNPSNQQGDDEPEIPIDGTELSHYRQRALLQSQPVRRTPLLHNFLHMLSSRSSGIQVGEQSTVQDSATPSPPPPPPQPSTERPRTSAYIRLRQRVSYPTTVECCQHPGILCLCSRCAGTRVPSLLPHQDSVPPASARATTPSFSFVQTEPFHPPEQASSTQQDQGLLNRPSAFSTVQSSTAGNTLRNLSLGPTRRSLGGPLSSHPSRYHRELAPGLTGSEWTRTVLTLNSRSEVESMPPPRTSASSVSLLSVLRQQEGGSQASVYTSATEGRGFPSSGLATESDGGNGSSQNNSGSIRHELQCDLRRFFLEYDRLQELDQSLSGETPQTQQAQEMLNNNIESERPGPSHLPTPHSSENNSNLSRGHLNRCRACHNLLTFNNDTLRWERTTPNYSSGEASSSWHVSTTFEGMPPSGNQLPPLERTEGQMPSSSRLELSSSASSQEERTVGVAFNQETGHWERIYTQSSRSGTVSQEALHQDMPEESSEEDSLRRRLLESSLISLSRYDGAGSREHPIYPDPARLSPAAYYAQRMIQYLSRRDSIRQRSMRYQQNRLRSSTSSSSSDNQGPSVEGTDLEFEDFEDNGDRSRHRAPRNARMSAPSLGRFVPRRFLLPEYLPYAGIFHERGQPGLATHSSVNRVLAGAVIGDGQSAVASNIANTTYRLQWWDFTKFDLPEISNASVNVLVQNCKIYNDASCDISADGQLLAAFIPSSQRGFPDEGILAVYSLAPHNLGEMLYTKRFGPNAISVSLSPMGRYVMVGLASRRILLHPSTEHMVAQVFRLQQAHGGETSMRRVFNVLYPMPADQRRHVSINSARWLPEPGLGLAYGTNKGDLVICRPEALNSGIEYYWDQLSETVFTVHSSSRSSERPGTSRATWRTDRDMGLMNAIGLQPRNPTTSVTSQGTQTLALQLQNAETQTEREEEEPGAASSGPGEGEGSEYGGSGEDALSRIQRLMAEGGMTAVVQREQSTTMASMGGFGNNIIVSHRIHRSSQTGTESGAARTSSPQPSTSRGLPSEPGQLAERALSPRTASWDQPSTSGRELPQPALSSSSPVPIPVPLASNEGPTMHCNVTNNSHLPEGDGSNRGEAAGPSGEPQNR

Chains of the proteins cited; added tags and fusions are not shown.
UniProt Q00944: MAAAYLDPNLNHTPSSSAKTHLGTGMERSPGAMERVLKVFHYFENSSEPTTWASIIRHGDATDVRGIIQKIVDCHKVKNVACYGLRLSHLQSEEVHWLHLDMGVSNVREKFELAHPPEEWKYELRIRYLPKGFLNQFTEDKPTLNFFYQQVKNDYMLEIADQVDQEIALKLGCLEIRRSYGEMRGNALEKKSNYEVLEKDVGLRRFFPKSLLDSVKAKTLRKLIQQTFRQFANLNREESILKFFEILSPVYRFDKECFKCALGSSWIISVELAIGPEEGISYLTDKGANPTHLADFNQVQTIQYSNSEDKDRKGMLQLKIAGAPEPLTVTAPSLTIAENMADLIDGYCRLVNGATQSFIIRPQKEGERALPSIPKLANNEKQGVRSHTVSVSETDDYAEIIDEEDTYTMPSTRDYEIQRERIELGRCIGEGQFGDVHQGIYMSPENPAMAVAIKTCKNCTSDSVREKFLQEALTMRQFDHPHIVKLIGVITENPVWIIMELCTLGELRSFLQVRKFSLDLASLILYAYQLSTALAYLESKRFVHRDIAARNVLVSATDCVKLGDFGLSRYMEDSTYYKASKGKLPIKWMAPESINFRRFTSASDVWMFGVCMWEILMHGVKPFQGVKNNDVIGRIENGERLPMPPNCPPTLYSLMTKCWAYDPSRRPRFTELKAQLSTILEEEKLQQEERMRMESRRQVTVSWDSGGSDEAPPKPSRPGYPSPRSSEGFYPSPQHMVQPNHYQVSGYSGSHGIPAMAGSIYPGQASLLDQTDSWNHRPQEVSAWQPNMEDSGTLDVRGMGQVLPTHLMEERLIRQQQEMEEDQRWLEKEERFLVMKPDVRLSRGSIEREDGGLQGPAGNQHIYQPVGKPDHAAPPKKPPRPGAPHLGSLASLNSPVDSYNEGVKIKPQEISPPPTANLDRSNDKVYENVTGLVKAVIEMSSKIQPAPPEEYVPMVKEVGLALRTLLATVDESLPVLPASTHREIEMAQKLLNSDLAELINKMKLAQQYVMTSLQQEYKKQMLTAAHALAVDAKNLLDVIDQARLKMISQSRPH
UniProt O08788: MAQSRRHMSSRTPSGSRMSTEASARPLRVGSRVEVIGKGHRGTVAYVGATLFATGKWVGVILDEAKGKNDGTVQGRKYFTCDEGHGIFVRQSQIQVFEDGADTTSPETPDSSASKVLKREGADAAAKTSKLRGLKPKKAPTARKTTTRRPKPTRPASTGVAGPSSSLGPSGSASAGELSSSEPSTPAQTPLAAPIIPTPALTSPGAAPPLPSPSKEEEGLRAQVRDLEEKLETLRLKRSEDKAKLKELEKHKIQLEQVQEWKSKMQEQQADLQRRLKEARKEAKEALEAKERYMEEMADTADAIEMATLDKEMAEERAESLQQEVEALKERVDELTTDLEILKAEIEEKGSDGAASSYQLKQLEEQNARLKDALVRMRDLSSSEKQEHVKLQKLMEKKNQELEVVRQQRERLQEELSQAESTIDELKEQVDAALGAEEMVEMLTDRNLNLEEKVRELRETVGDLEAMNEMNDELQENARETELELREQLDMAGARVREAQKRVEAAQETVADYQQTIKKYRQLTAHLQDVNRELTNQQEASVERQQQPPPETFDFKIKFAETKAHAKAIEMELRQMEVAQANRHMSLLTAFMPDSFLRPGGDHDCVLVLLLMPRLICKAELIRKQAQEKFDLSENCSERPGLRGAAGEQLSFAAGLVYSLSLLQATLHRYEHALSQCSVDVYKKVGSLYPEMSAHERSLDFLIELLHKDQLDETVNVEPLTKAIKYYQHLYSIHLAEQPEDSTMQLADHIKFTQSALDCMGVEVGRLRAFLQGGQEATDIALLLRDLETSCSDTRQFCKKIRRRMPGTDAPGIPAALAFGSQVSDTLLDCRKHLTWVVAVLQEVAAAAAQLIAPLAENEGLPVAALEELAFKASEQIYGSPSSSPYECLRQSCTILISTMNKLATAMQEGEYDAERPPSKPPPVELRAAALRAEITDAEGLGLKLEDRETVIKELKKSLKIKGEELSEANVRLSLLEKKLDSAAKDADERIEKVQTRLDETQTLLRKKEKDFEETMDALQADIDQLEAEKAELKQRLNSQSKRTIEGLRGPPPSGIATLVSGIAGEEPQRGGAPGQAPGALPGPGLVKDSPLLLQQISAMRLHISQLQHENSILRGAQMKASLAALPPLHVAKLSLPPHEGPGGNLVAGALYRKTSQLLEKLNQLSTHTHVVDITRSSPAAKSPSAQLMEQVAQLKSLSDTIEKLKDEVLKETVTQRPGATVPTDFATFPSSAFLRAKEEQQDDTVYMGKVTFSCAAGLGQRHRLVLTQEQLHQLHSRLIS
UniProt Q9CQW9: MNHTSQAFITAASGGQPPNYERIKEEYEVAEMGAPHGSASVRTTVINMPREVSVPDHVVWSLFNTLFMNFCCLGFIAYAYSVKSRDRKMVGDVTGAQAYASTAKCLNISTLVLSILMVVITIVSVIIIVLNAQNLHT

[2] = molecular target: focal adhesion kinase (FAK), wild type, in SCC FAK-WT cells (UniProt Q00944); assay: as above

binding [1] | binding [2] | Substance
binds | – | Dynactin 1 (Dctn1; also known as p150Glued) (from UniProt O08788 1-1281)
binds | binds | interferon-induced transmembrane protein 3 (IFITM3) (from UniProt Q9CQW9 1-137)

Source: publication PMC5376188
